Reference: article PMC4207660, “Identification and Characterization of Hundreds of Potent and Selective Inhibitors of Trypanosoma brucei Growth from a Kinase-Targeted Library Screening Campaign” (PLoS Neglected Tropical Diseases, 2014)

Experiment: Composite Score (multi-factorial prioritization of hits)
Settings: Figures 7-9 (in parentheses) and text; maximal score 16

SMILES | composite score
OCCn1c(CNCCCNc2nc3ccccc3[nH]2)cc2c(Cl)cc(Cl)cc21 [NEU-0001053] | 12
CN(C)Cc1ccc(-c2cc3c(-c4cnn(C)c4)ccnc3[nH]2)cc1 [NEU-0001200] | 13
Cn1cc(-c2cnc3[nH]cc(-c4cccc(C#N)c4)c3c2)cn1 [NEU-0001207] | 13

Same assay, conditions: Table S2; maximal score 16

SMILES | Score (Composite Score)
OCCn1c(CNCCCNc2nc3ccccc3[nH]2)cc2c(Cl)cc(Cl)cc21 [NEU-0001053] | 12
O=C(Nc1ccncc1)c1ccc([N+](=O)[O-])o1 [NEU-0001094] | 9
CN[C@@H]1C[C@H]2O[C@@](C)([C@@H]1OC)n1c3ccccc3c3c4c(c5c6ccccc6n2c5c31)C(=O)NC4 [NEU-0001095] | 9
C(=C\c1c(-c2ccccc2)nc2sccn12)/c1ccn[nH]1 [NEU-0001096] | 8
Clc1ccc(C2c3ccccc3Cc3nncn32)cc1 (stereo not drawn) [NEU-0001097] | 8
O=c1[nH]c(=O)n(CC2CCCCC2)c2nc(N3CCOCC3)sc12 [NEU-0001098] | 8
CCCCn1nc(C)c2c(=O)[nH]c(-c3cccc(N)c3)nc21 [NEU-0001099] | 8
CS(=O)(=O)Nc1ccc(-c2c(-c3cccnc3)oc3ncnc(N)c23)cc1 [NEU-0001100] | 7
O=c1nc(-c2ccccc2)c2cc(-c3ccncc3)ccc2[nH]1 [NEU-0001101] | 6
CC[C@@H]1COCCN1c1cc(-c2cc(OC)c3c(N)n[nH]c3c2)nc(N)n1 [NEU-0001102] | 6
Cc1cccc(Nc2nc(OCCN)ncc2C(N)=O)c1 [NEU-0001103] | 6
CCn1nccc1NC(=O)c1ncnc2ccc(-c3cccc(S(C)(=O)=O)c3)cc12 [NEU-0001104] | 6
